Experiment [1] addresses nuclear TRAIL-R2 (human (endogenous in Panc89 and Panc-1)) (UniProt O14763). Kind of experiment: co-IP; immunoprecipitation of TRAIL-R1 (Mapatumumab) or TRAIL-R2 (Lexatumumab) from nuclear extracts (1.5 mg/IP; 30 mM Tris-HCl pH 7.5, 120 mM NaCl, 1% glycerol, 0.5% NP-40) of PDAC cell lines, with RNasin or RNase A for 1 h at 37 °C; Western blot for CRM-1.
Experiment [2] concerns the target nuclear TRAIL-R1 (human (endogenous in Panc89 and Panc-1)) (UniProt O00220). Described as above.

Chains of the proteins cited; added tags and fusions are not shown. Residues count along the entry.
UniProt O14763, residues 56-440: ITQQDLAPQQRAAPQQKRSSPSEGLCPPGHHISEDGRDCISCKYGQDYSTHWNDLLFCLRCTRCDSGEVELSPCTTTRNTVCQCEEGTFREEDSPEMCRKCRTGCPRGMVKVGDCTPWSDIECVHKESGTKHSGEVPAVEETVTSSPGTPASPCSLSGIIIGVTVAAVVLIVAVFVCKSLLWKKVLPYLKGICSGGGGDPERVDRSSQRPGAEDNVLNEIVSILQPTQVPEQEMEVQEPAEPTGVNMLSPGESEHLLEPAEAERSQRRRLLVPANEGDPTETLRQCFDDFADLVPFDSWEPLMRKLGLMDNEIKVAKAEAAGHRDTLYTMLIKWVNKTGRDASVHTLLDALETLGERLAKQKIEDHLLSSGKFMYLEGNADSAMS
UniProt O00220, residues 24-468: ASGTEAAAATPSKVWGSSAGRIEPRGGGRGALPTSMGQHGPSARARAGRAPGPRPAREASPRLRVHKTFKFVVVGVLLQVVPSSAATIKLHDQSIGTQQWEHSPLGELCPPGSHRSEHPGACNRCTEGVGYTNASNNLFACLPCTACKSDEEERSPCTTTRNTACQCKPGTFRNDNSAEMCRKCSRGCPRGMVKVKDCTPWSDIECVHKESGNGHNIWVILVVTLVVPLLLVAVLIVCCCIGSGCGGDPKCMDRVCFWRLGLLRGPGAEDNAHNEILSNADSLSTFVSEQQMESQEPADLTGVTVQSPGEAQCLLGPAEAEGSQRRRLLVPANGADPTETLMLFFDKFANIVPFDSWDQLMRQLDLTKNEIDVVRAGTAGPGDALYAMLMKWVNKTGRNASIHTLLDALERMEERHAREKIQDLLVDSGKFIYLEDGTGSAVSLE
UniProt O14980: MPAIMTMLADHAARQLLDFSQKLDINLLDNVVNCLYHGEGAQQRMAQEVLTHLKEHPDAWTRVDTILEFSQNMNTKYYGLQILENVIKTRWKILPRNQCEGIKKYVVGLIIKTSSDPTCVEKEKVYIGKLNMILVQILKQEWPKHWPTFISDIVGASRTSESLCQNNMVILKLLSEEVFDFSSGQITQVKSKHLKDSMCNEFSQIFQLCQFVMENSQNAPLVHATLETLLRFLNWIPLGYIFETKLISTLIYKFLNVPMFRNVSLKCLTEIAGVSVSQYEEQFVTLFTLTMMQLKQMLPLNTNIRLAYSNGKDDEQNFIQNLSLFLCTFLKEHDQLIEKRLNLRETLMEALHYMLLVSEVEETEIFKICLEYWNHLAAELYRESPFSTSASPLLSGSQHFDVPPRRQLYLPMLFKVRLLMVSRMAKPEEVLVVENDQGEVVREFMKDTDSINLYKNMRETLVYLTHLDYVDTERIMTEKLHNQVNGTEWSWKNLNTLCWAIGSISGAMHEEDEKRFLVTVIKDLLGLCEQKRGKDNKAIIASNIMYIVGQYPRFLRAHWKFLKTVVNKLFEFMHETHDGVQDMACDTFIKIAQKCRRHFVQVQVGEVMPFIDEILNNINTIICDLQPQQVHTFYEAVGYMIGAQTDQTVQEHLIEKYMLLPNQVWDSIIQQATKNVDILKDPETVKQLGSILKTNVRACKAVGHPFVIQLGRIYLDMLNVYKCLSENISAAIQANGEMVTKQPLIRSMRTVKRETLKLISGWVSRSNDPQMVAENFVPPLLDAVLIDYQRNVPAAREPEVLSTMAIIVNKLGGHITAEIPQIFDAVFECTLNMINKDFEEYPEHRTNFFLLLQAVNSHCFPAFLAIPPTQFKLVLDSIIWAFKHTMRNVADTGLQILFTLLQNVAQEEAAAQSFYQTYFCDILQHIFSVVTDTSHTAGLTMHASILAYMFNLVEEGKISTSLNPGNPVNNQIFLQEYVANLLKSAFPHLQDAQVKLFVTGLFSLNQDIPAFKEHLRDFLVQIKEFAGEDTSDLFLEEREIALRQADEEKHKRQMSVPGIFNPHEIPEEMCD

Results are given in words; binding and its absence hold for the method and conditions named. In cells and extracts the contact can be indirect. Some results given as binding are weak or reduced against the parent protein; the word gives no strength.

On to “Exportin 1 (XPO 1)/chromosome region maintenance 1-homolog (CRM-1) (from UniProt O14980 1-1071)”, for which the binding entry in experiment [1] is listed as “binds”; in experiment [2], “no binding”.

The values are drawn from article PMC6721811.
